In patent US9580404B2, “Substituted azines as pesticides” (Novartis Tiergesundheit AG, priority 2012, dated 2017):
Some entries share one result that the patent states for a list of compounds.

Test system: Dirofilaria immitis microfilariae
Assay: Dirofilaria immitis Microfilaria Assay
Format: cell-based
Settings: at 30 ppm; 48 hours at 25° C. and 60% RH

Row | SMILES | Efficacy in percent reduced motility as compared to the control and standards
1 | N#Cc1ccc(CN2CCC(Oc3cc(N4CCN(c5ccc(C(F)(F)F)cc5)CC4)ncn3)CC2)cc1 [Compound 38] | above 50%
2 | N#Cc1ccc(N2CC(Oc3cc(N4CCN(c5ccc(C(F)(F)F)cc5)CC4)ncn3)C2)cc1C(F)(F)F [Compound 74] | above 50%
3 | Fc1ccc(CN2CCC(Oc3cc(N4CCN(c5ccc(C(F)(F)F)cc5)CC4)ncn3)CC2)cc1C(F)(F)F [Compound 39] | above 50%
4 | N#Cc1ccc(OC2CCN(c3cc(N4CCC(Nc5ccc(C(F)(F)F)cc5)CC4)ncn3)CC2)cc1C(F)(F)F [Compound 85] | above 50%
5 | FC(F)(F)c1ccc(NC2CCN(c3cc(OC4CCN(c5ccc(C(F)(F)F)cc5)CC4)ncn3)CC2)cc1 [Compound 70] | above 50%
6 | O=[N+]([O-])c1ccc(NC2CCN(c3cc(N4CCN(c5ccc(C(F)(F)F)cc5)CC4)ccn3)CC2)cc1C(F)(F)F [Compound 100] | above 50%
7 | COc1ccc(C(=O)N2CCC(Oc3cc(N4CCN(c5ccc(C(F)(F)F)cc5)CC4)ncn3)CC2)cc1 [Compound 29] | above 50%
8 | O=[N+]([O-])c1ccc(NC2CCC(Oc3cc(N4CC5(CN(c6ccc(C(F)(F)F)cc6)C5)C4)ncn3)CC2)cc1C(F)(F)F (stereo not drawn) [Compound 13] | above 50%
9 | N#Cc1ccc(O[C@H]2CC[C@H](Nc3cc(N4CCN(c5ccc(C(F)(F)F)cc5)CC4)ncn3)CC2)cc1C(F)(F)F [Compound 59] | above 50%
10 | O=[N+]([O-])c1ccc(NC2CCN(c3cc(N4CCC(Nc5ccc(C(F)(F)F)cc5)CC4)ncn3)CC2)cc1C(F)(F)F [Compound 79] | above 50%
11 | N#Cc1ccc(N2CCC(Oc3cc(N4CC(Nc5ccc(C(F)(F)F)cc5)C4)ncn3)CC2)cc1C(F)(F)F [Compound 82] | above 50%
12 | O=[N+]([O-])c1ccc(NC2CCC(Oc3cc(N4CCCN(c5ccc(C(F)(F)F)cc5)CC4)ncn3)CC2)cc1C(F)(F)F (stereo not drawn) [Compound 8] | above 50%
13 | O=[N+]([O-])c1ccc(OC2CCC(Oc3cc(N4CCN(c5ccc(C(F)(F)F)cc5)CC4)ncn3)CC2)cc1C(F)(F)F (stereo not drawn) [Compound 89] | above 50%
14 | N#Cc1ccc(NC2CCC(Oc3cc(N4CCN(c5ccc(C(F)(F)F)cc5)CC4)ncn3)CC2)cc1C(F)(F)F (stereo not drawn) [Compound 11] | above 50%
15 | Fc1cc(CN2CCC(Oc3cc(N4CCN(c5ccc(C(F)(F)F)cc5)CC4)ncn3)CC2)cc(F)c1F [Compound 52] | above 50%
16 | CC(C)(C)c1ccc(C(=O)N2CCC(Oc3cc(N4CCN(c5ccc(C(F)(F)F)cc5)CC4)ncn3)CC2)cc1 [Compound 30] | above 50%
17 | O=C(c1ccccc1C(F)(F)F)N1CCC(Oc2cc(N3CCN(c4ccc(C(F)(F)F)cc4)CC3)ncn2)CC1 [Compound 43] | above 50%
18 | FC(F)(F)c1ccc(N2CCN(c3cc(OC4CCN(Cc5cc(C(F)(F)F)cc(C(F)(F)F)c5)CC4)ncn3)CC2)cc1 [Compound 49] | above 50%
19 | O=[N+]([O-])c1ccc(N[C@H]2CC[C@H](Oc3cc(N4CCN(c5ccc(C(F)(F)F)nc5)CC4)ncn3)CC2)cc1C(F)(F)F [Compound 19] | above 50%
20 | Nc1ccc(N2CCC(Oc3cc(N4CCC(Nc5ccc(C(F)(F)F)cc5)CC4)ncn3)CC2)cc1C(F)(F)F [Compound 73] | above 50%
21 | O=[N+]([O-])c1ccc(N2CCOC(COc3cc(N4CCC(Nc5ccc(C(F)(F)F)cc5)CC4)ncn3)C2)cc1C(F)(F)F (stereo not drawn) [Compound 22] | above 50%
